No constants are given. Whether binding was seen depends on the method and setting. Binding seen in cells or lysates may run through a third protein. Some binding calls cover weakened binding; strength is not graded here.
Columns and labels:
[1] = biological target: Octamer binding transcription factor-4 (Oct4) (human (endogenous in HeLa and C33A)) (UniProt Q01860); experiment: co-IP; endogenous Oct4 immunoprecipitated with Oct4 antibody (1ug/ml, overnight, 4°C) from RIPA lysates of HeLa cells stably expressing Flag-tagged E7; western blot
[2] = biological target: Octamer binding transcription factor-4 (Oct4) (human (endogenous in HeLa and C33A)) (UniProt Q01860); experiment: co-IP; endogenous Oct4 immunoprecipitated with Oct4 antibody from RIPA lysates of C33A cells transduced (pLXSN) or transfected (cmv) with HPV16 E7 wildtype or mutants; western blot

Amino acid sequences for entries named in this document (tags omitted). A change or cut given only in a name is not applied to a line headed by its entry.
UniProt Q01860: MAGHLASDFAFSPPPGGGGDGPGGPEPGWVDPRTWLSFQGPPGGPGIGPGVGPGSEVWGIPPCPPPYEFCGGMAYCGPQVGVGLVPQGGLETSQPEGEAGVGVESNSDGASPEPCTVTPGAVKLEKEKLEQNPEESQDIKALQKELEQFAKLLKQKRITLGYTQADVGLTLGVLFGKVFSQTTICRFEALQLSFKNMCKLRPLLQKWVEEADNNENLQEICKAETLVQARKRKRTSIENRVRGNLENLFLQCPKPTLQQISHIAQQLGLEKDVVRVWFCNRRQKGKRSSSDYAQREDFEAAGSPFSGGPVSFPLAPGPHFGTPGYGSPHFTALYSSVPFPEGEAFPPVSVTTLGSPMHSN
UniProt P03129: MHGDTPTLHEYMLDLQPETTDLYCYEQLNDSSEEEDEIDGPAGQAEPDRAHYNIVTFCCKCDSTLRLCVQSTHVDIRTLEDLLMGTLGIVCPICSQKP
UniProt P06788: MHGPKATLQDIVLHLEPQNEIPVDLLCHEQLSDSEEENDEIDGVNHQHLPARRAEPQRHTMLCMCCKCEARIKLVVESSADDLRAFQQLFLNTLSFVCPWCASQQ

Substance	binding [1]	binding [2]
Flag-tagged HPV16 E7 (from UniProt P03129 1-98)	binds	–
Flag-tagged HPV18 E7 (from UniProt P06788 1-105)	binds	–
HPV16 E7 (wildtype) (from UniProt P03129 1-98)	–	binds

— PMC7228134
